- melting point: 43 to 47 °C
Compound: CCC[C@H](NC(=O)OC(C)(C)C)C(=O)O
